Results as given in PubChem BioAssay AID1508600 (Functional Genomics Laboratory (NCATS/FGL), 2020).
Screen size: about 53,000 sequences; about 3,700 (7%) were called active.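 How the source made its calls: active means gene knockdowns whose robust z-score for IL-1 alpha signal is at least 2 or at most -2, so actives lie on both sides; inactive means the rest.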 Some of the results follow.

Assay: Components of the Cytosolic LPS Sensing Pathway: Gene Identification via Genome-wide siRNA Screen;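 further: robust z of the log signal after scaling to non-targeting control siRNA wells of the plate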
Conditions: RAW264.7 macrophages, IL-1a HTRF, actives lie on both sides, screened at 100 nM (by protocol), cells primed 5 h with Pam3CSK4 first
Summary of the method: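 Supernatant IL-1a by HTRF from RAW264.7 cells primed with Pam3CSK4 (5 hours) and transfected with LipidA (24 hour) after 48h siRNA knockdown at 100 nM; cell viability checked with CellTiter-Glo.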

Row | Sequence | z-score
1 | GGUGACGUAAUACGUUUCUTT against Lrrc59 | inactive: -0.141
2 | CCGGCUAAGAAAGACAAUUTT against Dync1li1 | inactive: -0.483
3 | CGGCGAUGAGAUUUUCCAUTT against H2-Ea | inactive: 1.35
4 | CGAUGGUGGUUCUUAUUUUTT against Otx1 | inactive: 1.5
5 | CCCGCUUUUUUUUCUGGACTT against Ndufa8 | inactive: 1.11
6 | GGGAGUUGUAGUAUUAGUATT against Zfp94 | inactive: -1.19
7 | GGGCUUCUGCUUUUACUACTT against Ppm1j | inactive: 1.9
8 | GGUGCUUUGACCUAUAUCUTT against Fdxacb1 | inactive: 0.578
9 | CCAACCGUUUGCUACUCUUTT against Gtpbp6 | inactive: 1.54
10 | GGUCAUCAGUGAUCAGUCATT against Mre11a | inactive: -1.33
11 | CGACUAAGGAUGAAAAGCATT against Apbb1ip | active: -3.04
12 | AACCGAACUGAUAAGAACUTT against Bag5 | inactive: 1.05
13 | GCUAACUUAGAUAUCCAGGTT against Abtb2 | inactive: 0.125
14 | GCACCGAAUGCACAAUCUCTT against Tmem222 | inactive: 0.365
15 | CCACCAGAUACAGGAUCUATT against Brinp2 | inactive: 1.48
16 | GGAGUUCCUCAAGAAUUUUTT against Arpc4 | inactive: -1.39
17 | GGGUAAAAUCAGUGAACCUTT against Smap2 | inactive: -0.925
18 | GGCUUUCUUUGUCUUCUCCTT against Adcy3 | inactive: -0.936
19 | GCUUUAAGUCGUAAUCUAGTT against Ank | inactive: 1.32
20 | GGUGUGCUGAAAUUUCAAATT against Themis | inactive: 1.7
21 | GCUAUUUCUGCCUUUAGUCTT against Scamp5 | inactive: -0.0682
22 | GGCCUAUGAAGUACUAUCUTT against Dnajb2 | inactive: -0.181
23 | GACCUUGGUUAUUCUACAGTT against Olfr1087 | inactive: -1.14

Row | Sequence | z-score
24 | CCUUCCUUUACCGAUACUCTT against Dennd4b | inactive: -0.21
25 | GGUGCUAAAGGAGCUUCUGTT against Commd4 | inactive: 0.00328
26 | CCCAGAAUAGAGGAGAACATT against 4933427D14Rik | inactive: -0.918
27 | GGUGAAAAAAACAGGAUCCTT against Wnt11 | inactive: 0.28
28 | GGUGGCAAAGUGGUGAUCCTT against Fabp7 | active: 2.05
29 | CCACUGACAUUCCUAUUAUTT against Capn6 | inactive: -0.0642
30 | GGACAUGAGGCUUCUGAGATT against Tpsb2 | inactive: 1.22
31 | CCGUGGUGCAAGCUUACAUTT against Atp2b4 | inactive: 0.616
32 | GGCCUAAAUGUGGAUUUUGTT against Phf6 | inactive: -1.98
33 | GGAAAAGGUGUCUUCCGUGTT against Crybb2 | inactive: 0.2
34 | GGGCUCACACAAAUAAGAGTT against Tmem88 | inactive: -0.403
35 | GGUUAUUUCUCUCUCCCUATT against Creld1 | inactive: 0.524
36 | GGACCUGAAUUCCACUCCUTT against Socs1 | inactive: -0.147
37 | CCGAAUGGAAUACCAAAUUTT against Cst8 | inactive: 1.7
38 | GGCAAUGGGAAAAUCGUGUTT against Gp5 | inactive: 1.51
39 | GGAGUCCUUUCGUUCUAUCTT against Rab2a | inactive: -0.319
40 | GGUUGUGCAACACAGCUCUTT against Olfr218 | active: -2.31
41 | GGGACUGUACAACCACUCUTT against En1 | inactive: -0.93
42 | GGCUUCUUCCUCGUCUUUGTT against Leprot | inactive: -0.876
43 | GGAAGUGUGCUUUCUUUCCTT against Triqk | inactive: 0.692
44 | GCCCUAGGAGGAACUGAGUTT against Olfr458 | active: -2.54
45 | GGUAUCCAUGUUAUGCUGUTT against Cyp4a12a | inactive: -0.299
46 | GGGUUUUUGUUAGAUGUUATT against Rab3b | inactive: -1.57

Row | Sequence | z-score
47 | GCACGAAUCAUUGUUCAAATT against Chmp7 | inactive: 0.939
48 | GGAAGCUGUUUGAACUCGCTT against Cuedc1 | inactive: -0.243
49 | GGAGGUAAUUACAUAAUGGTT against 9930022D16Rik | inactive: 0.165
50 | GGAAACUUCUUCCCGGUUGTT against Gsdmc | inactive: 1.16
51 | GCCAUUGUGACUGGAGACATT against Olfr804 | inactive: -1.55
52 | CCGUUGACCUGAAAAGGAATT against Clic4 | inactive: -0.0288
53 | GGAAGUUUGCUCAAUCUCATT against Jarid2 | inactive: 1.12
54 | GGAUCUUCCUGGAUGCCAATT against Hps1 | active: -2.61
55 | GGCUAGCAUCACAUGACUUTT against Tmem65 | inactive: -1.71
56 | GGACUUUCAGUUAUAUAGGTT against Ogfod3 | inactive: 0.0701
57 | CCUCCUCUAUACAAACAUGTT against Hcar2 | inactive: 0.364
58 | GCAAUCUAUAAGAGGUACATT against Axin2 | inactive: 1.79
59 | GGAACCAAUCUGUCUCUCCTT against Cbfb | active: -2.07
60 | GGACUUGUGAUUCAAGCAUTT against Rad23b | inactive: 0.525
61 | GGAAGGGAUGCUCAUAGUATT against Hgfac | inactive: -0.0314
62 | CGGUGUUGGUAAAUGUCACTT against Olfr1427 | inactive: -0.93
63 | GCGGCAAUAUAAGCUACGUTT against Fbln7 | inactive: -1.17
64 | GGUCGCUGGAGACCUUAGUTT against Hjurp | inactive: -1.88
65 | GGGAAGAGCCAUCUCUUUUTT against Olfr140 | inactive: 0.0521
66 | GGAGAUAAUGAAAACUGCUTT against Cst13 | inactive: 0.774
67 | GGGUUCAAAAGCCCAUAUUTT against Gm6787 | inactive: 0.206
68 | GGGCUUAAUGGUAAAAUGATT against Slc40a1 | inactive: 0.292

A few values from the list:
z-score with GGCUAGCAUCACAUGACUUTT against Tmem65 is entered as inactive: -1.71
z-score with CCUCCUCUAUACAAACAUGTT against Hcar2 is entered as inactive: 0.364
z-score with GGGAAGAGCCAUCUCUUUUTT against Olfr140 is entered as inactive: 0.0521
